Data as given in paper PMC9287719.
These are yes or no findings as the source states them, for the method shown.

Chains of the proteins cited; added tags and fusions are not shown. Residues count along the entry.
UniProt P31994, residues 43-217: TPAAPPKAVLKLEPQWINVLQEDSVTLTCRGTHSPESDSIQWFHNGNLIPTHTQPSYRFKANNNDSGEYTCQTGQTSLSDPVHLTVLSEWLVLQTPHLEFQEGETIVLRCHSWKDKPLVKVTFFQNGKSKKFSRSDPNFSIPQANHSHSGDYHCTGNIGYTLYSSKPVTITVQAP
UniProt P12318, residues 34-217: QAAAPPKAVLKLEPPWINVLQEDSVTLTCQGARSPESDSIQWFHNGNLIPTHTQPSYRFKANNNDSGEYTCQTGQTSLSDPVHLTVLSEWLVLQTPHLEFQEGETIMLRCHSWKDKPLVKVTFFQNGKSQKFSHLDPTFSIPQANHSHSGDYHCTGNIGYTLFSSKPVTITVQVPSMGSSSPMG
UniProt P08637, residues 17-208: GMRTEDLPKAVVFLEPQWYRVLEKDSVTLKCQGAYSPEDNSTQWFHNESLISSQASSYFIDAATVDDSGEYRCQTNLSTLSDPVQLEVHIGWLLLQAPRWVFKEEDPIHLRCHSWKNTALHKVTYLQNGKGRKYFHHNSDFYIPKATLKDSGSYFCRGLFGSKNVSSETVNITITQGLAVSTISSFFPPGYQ
UniProt P12314, residues 16-292: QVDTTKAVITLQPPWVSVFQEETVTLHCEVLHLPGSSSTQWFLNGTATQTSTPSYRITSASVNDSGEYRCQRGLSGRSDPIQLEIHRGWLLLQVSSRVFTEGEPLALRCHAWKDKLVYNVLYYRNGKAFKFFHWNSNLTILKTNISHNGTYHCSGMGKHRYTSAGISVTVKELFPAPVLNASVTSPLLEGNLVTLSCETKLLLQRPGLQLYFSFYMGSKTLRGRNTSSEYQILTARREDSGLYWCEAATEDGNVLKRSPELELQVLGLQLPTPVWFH
UniProt P02768, residues 25-609: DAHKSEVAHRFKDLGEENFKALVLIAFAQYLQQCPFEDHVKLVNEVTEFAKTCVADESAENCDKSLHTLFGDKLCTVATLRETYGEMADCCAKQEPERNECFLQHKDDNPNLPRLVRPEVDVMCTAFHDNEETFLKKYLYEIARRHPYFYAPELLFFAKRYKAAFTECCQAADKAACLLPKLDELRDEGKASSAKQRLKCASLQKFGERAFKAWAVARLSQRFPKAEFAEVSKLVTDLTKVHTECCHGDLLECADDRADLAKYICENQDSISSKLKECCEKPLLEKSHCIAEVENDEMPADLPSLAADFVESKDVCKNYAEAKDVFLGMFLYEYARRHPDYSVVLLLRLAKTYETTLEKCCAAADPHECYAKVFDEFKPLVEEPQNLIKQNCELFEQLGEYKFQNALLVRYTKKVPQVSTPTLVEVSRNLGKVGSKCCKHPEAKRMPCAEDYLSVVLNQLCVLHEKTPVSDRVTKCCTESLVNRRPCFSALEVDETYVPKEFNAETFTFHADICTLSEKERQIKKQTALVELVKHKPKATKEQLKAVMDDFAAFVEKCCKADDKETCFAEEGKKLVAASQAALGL

Experiments:
[1] = molecular target: Recombinant FcγRIIb with C-terminus Biotin (human) (UniProt P31994); assay: split reporter; homogeneous competition assay in solution for FcγRIIb: FcγRIIb-Biotin mixed 4:1 with Streptavidin-SmBiT (tetrameric, avidity); PBS with 10% superblock; IC50 only a qualitative indicator of binding; both purified
[2] = molecular target: Recombinant FcγRIIa (H131) with C-terminus Biotin (human) (UniProt P12318); assay: split reporter; homogeneous competition assay in solution for FcγRIIa and FcγRIIIa variants: sample competes with IgG-LgBiT tracer for FcγR-Biotin mixed 1:1 with Streptavidin-SmBiT; 30–60 min; PBS with 10% superblock; IC50 equivalent to apparent affinity (KD); both purified
[3] = molecular target: Recombinant FcγRIIIa (F158) with C-terminus Biotin (human) (UniProt P08637); assay: as above
[4] = molecular target: Recombinant FcγRI with C-terminus Biotin (human) (UniProt P12314); assay: split reporter; homogeneous competition assay in solution for FcγRI: tracer 0.25 nM, target 0.075 nM (FcγRI-Biotin 1:1 with Streptavidin-SmBiT); PBS with 10% superblock; IC50 only a qualitative indicator of binding; both purified

binding [1]: no binding
binding [2]: no binding
binding [3]: no binding
binding [4]: no binding
Substance: Human Serum Albumin (HSA) (from UniProt P02768 25-609)
